Measurements as given in PubChem BioAssay AID743266 (National Center for Advancing Translational Sciences (NCATS), 2014).
In all, about 410,000 compounds went through this assay and about 310 (0.076%) were called active. The shares of active, inactive and inconclusive entries below differ from those in the screen. Calls follow the shape of the dose curve; as a rule, active = well fitted activation curve with a large enough effect; inconclusive = small, poorly fitted or top-dose-only effect, or another doubt; inactive = no such curve, though single readings can be large or run the other way. A potency beside an inconclusive call is a rough fit, not a confirmed value.

Sequences of proteins named here, by UniProt entry; tags and fusion partners are left off.
UniProt Q03431, whole entry, looked up: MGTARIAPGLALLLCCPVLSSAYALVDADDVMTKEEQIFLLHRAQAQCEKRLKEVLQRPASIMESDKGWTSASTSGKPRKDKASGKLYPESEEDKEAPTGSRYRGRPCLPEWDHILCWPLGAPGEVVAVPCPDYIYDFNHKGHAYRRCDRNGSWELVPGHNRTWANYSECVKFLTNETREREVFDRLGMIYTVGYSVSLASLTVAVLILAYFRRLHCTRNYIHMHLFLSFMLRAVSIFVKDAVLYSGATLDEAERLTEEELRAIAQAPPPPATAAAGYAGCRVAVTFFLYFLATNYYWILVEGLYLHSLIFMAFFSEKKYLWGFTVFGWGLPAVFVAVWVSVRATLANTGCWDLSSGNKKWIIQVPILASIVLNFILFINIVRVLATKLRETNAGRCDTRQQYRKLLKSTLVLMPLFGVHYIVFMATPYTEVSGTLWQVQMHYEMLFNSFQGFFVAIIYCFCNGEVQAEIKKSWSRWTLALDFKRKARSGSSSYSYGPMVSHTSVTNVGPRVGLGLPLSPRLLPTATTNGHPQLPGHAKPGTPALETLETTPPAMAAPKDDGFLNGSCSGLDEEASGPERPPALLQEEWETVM

Target: Parathyroid hormone/parathyroid hormone-related peptide receptor (Homo sapiens) (UniProt Q03431)
Assay: qHTS for PTHR1 Agonists: Primary Screen; also: nearly all actives have a fitted effect of over 55% in size
Settings: HEK293 GP2 PTHR1 cells, GloSensor cAMP luminescence, 1 h; activation: at 115 µM (top of the series) unless noted; series mostly up to 115 µM
In short: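 HEK-293-derived GP2 cells expressing PTHR1 and a GloSensor cAMP reporter, 3,000/well, plated overnight, given luciferin plus IBMX (each 0.5 mM as added) for 1 h at 37 °C, then compound for 1 h at 37 °C. Luminescence was read after 15 min at room temperature.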
Potency is read from the fitted curve at half-maximal effect.

Potency, inconclusive:
Cc1nc2sccn2c(=O)c1S(=O)(=O)NCc1ccccc1 126 µM [activator, single point]
Cc1nc2ccccn2c(=O)c1NC(=O)c1ccccc1Cl 141 µM [activator, single point]
O=C1NC(c2ccc(Cl)c([N+](=O)[O-])c2)Nc2ccccc21 (stereo unspecified) 10 µM [activator, partial curve, poor fit]
O=C(CN1CCN(c2ccc(Cl)cc2)CC1)NCc1cccs1 86 µM [activator, partial curve, poor fit]
CCOC(=O)C1=C(CSCC(=O)OC)NC(=O)NC1c1cc(C)ccc1C (stereo unspecified) 31.6 µM [activator, single point]
O=C(Cc1cccs1)Nc1cccc(C(=O)Nc2ccc(C(=O)O)cc2)c1 89.1 µM [activator, partial curve, poor fit]
COc1ccc(NC(=O)COC(=O)C2CC(=O)N(CCc3ccc(OC)c(OC)c3)C2)cc1Cl (stereo unspecified) 126 µM [activator, single point]
O=C(NCc1cccs1)C1CCN(C(=O)N2CCOc3ccccc32)CC1 39.8 µM [activator, partial curve, poor fit]
CCOc1ccc(NC(=O)Cn2cc(C(=O)c3ccc(C)c(C)c3)c(=O)c3cc(OC)c(OC)cc32)cc1 50.1 µM [activator, partial curve, poor fit]
O=C1CSc2ccc(C(=O)NCCC3=CCCCC3)cc2N1 5.01 µM [activator, partial curve, poor fit]
Cc1csc2nc(CNC(=O)c3cccc(C(F)(F)F)c3)cn12 35.5 µM [activator, single point]
NS(=O)(=O)c1cccc(NC(=O)CSc2nnc(C3CC3)n2C2CC2)c1 1 µM [activator, full curve]
C=CCn1c(SCCC(=O)O)nnc1-c1cccs1 126 µM [activator, single point]
COc1ccc(-c2cc(C(=O)c3c(N)n(C)c(=O)n(C)c3=O)c3ccccc3n2)cc1OC 100 µM [activator, single point]
Nc1ccccc1OCCOCCOCCOc1ccccc1N 2.24 µM [activator, partial curve, poor fit]
O=S(=O)(NCCc1ccccc1)c1ccccc1 44.7 µM [activator, single point]
CCCCN(C(=O)CCNC(=O)NC12CC3CC(CC(C3)C1)C2)c1c(N)n(CCC)c(=O)[nH]c1=O 44.7 µM [activator, partial curve]
Cc1cc(C(F)(F)F)n2nc(C)c(-c3ccc(Cl)cc3)c2n1 50.1 µM [activator, partial curve, poor fit]

Potency, inactive:
O=C(Nc1ccc(Cl)c(S(=O)(=O)N2CCOCC2)c1)c1ccc(OCC2CCCO2)cc1 (stereo unspecified)
CC(C)C[C@H]1CN=C(Nc2ccccc2)N1CCC1CCCCC1
COc1cc(C(C[N+](=O)[O-])c2c(N)n(C)c(=O)n(C)c2=O)ccc1O (stereo unspecified)
CCCCOc1ccc(C(=O)NCC(=O)N2CC(C)CC(C)C2)cc1 (stereo unspecified)
Cc1ccc(C(=O)C(C)OC(=O)C2CCN(c3ccc(C(F)(F)F)cn3)CC2)cc1C (stereo unspecified)
Cc1nc2ccc(NS(=O)(=O)c3ccc(F)c(C)c3)cc2[nH]1
CCOc1ccc(NC(=O)OCCN2CCN(CCc3ccccc3)C(C)C2)cc1 (stereo unspecified)
COc1ccc(-c2nc(-c3ccc(NC(=O)c4ccc(Br)o4)cc3)no2)cc1OC
Cc1nc(NC(C)c2ccccc2)sc1C(=O)Nc1ccccc1 (stereo unspecified)
Cc1noc(C)c1S(=O)(=O)N(CC(=O)NCc1ccccc1Cl)c1ccc(C(C)C)cc1
Cc1ccn2c(NC(=O)c3cccs3)c(-c3ccccc3)nc2c1
CN(C)C(=O)c1ccc(NC(=O)c2ccccc2SCC(=O)N2CCCC2)cc1
CC(C)c1ccc(NS(=O)(=O)c2ccc3[nH]cc(C(=O)N4CCCC4)c(=O)c3c2)cc1
O=C(NCc1ccccc1)c1ccc2nc(-c3ccco3)c(-c3ccco3)nc2c1
CCn1ncc(/C=N/N=C2\CCC3C4CCc5cc(O)ccc5C4CCC23C)c1C (stereo unspecified)
CNC(=O)N(O)C1N(NC(=O)Nc2ccccc2)C(=S)SC1(C)C (stereo unspecified)
CCC(/C=C1\Sc2ccc(OC)cc2N1CCO)=C\c1sc2ccc(OC)cc2[n+]1CCO
O=C(N/N=C/c1cccnc1)c1ccc(NC(=O)c2ccccc2Cl)cc1

Random excerpt: two entries already listed.
Potency, inactive:
Cc1nc(NC(C)c2ccccc2)sc1C(=O)Nc1ccccc1 (stereo unspecified)
CCCCOc1ccc(C(=O)NCC(=O)N2CC(C)CC(C)C2)cc1 (stereo unspecified)

Following part:

Potency, active:
COc1ccccc1CNC(=O)Cn1c(-c2cccs2)cc2cc(F)ccc21 50.1 µM

activation, inconclusive:
Cc1ccccc1NC(=S)NCCC(c1ccccc1)c1ccccc1 -34.9% [activator]
Cc1c(C)n2c(SCC(=O)Nc3ccc4c(c3)OCCO4)nnc2[nH]c1=O 50.6% [activator]
N#Cc1cnn(-c2ccccc2)c1N 88.4% [activator] [at 57.5 µM]
COc1ccc(OC)c(NC(=O)COC(=O)c2ccc(-n3cnnn3)cc2)c1 70.6% [activator] [at 57.5 µM]
C[C@H](CO)N1C[C@H](C)[C@@H](CN(C)C(=O)c2ccc(N3CCN(C)CC3)cc2)OCc2cnnn2CCCC1=O 31% [activator]
O=C(CCN1CCCCC1)c1ccc2c(c1)OCCO2 36.6% [activator] [at 57.5 µM]
COc1cc(NC(=O)CSc2ncnc3c2cnn3Cc2ccccc2)cc(OC)c1 -88% [activator] [at 57.5 µM]
CC(C)(C)NC(=O)c1ccc2c(c1)C(=O)N(C1CCCCC1)C2=O -50.6% [activator] [at 57.5 µM]
Cn1c(NNC(=O)/C=C/c2ccc3c(c2)OCO3)cc(=O)n(C)c1=O 33.9% [activator]

Nothing new here: four of the compounds above.
activation, inconclusive:
Cc1ccccc1NC(=S)NCCC(c1ccccc1)c1ccccc1 -34.9% [activator]
Cc1c(C)n2c(SCC(=O)Nc3ccc4c(c3)OCCO4)nnc2[nH]c1=O 50.6% [activator]
N#Cc1cnn(-c2ccccc2)c1N 88.4% [activator] [at 57.5 µM]
COc1ccc(OC)c(NC(=O)COC(=O)c2ccc(-n3cnnn3)cc2)c1 70.6% [activator] [at 57.5 µM]
